# From patent US20230304041A1, “DUAL PROMOTER-DRIVEN AND DUAL REPORTER-[…]-COV-2 REPLICONS AND METHODS OF USE” (Rosalind Franklin University of Medicine & Science, priority 2022, published 2023)
# Read-outs that look alike come from different tables or passages of the source. At least one structure is not confirmed: it was looked up by name or label, or the drawing left a doubt.
# Assays:
# SARS2 replicon [1] = format: cell-based, SARS-CoV-2; details: 24 hr
# SARS2 replicon [2] = format: cell-based, SARS-CoV-2; details: 24 hr; remark: listed apart in the source
structure (smiles),measurement,setting,value
CCC(CC)COC(=O)[C@H](C)N[P@](=O)(OC[C@H]1O[C@@](C#N)(c2ccc3c(N)ncnn23)[C@H](O)[C@@H]1O)Oc1ccccc1 [Remdesivir],inhibition of fLuc gene expression,SARS2 replicon [1],inhibited the fLuc gene expression in a concentration-dependent manner
same,inhibition of positive- and negative-stranded gRNA and N sgRNA expression,SARS2 replicon [2]; 5 μM,showed inhibition
same,inhibition of positive- and negative-stranded gRNA and N sgRNA expression,SARS2 replicon [2]; 10 μM,even greater inhibition
